Some of the results follow.
How the values were obtained:
Test in all cases: log2 fold change, soluble protein after heating vs DMSO (PISA); higher = thermal stabilisation; K562 cells, 10 uM, 30 min; active = over 0.2 and 3.5 SD of the protein, either way, in both replicates (recomputed)
bafetinib = compound: Cc1ccc(NC(=O)c2ccc(CN3CC[C@H](N(C)C)C3)c(C(F)(F)F)c2)cc1Nc1nccc(-c2cncnc2)n1 [bafetinib]
Outline: (§1)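 K562 cells at 2×10^6 cells/mL were given 10 μM compound for 30 min. Aliquots then went through 3 min of heating across 48°C-58°C, were pooled, and were extracted in PBS with 0.5% NP-40 at 4°C, and the supernatant after 21,000xg for 90 min was quantified by TMTpro 16plex LC-MS/MS with channel sums equalised. Thermal stability relative to control samples, from duplicates, is given as log2 fold change.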

Protein sequences, listed by entry. Tags and fused reporters are not part of them. Lines headed by an entry give the natural chain unless they say otherwise; changes in a name come on top.
UniProt Q9NXR7, whole entry, looked up: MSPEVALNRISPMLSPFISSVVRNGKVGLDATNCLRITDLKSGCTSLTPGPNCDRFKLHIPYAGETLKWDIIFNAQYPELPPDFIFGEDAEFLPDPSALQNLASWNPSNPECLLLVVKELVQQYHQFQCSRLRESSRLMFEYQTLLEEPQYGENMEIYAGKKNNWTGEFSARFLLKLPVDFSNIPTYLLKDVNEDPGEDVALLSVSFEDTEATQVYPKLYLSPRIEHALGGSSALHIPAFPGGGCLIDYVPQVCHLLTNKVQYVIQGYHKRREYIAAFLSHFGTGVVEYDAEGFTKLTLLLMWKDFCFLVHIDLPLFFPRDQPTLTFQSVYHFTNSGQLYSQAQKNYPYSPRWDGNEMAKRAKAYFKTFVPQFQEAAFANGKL
UniProt Q9Y679: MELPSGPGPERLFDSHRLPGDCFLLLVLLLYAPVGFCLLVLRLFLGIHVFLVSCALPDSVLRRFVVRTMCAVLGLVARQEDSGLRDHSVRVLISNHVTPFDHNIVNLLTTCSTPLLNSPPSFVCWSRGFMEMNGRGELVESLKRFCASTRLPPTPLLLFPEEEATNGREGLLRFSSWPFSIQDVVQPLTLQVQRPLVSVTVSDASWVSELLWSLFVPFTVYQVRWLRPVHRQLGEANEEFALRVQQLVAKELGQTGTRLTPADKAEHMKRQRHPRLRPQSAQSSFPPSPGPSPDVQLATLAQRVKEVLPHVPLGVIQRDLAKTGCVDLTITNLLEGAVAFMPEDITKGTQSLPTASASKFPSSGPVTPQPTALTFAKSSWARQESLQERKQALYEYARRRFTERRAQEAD
UniProt Q9UHR4: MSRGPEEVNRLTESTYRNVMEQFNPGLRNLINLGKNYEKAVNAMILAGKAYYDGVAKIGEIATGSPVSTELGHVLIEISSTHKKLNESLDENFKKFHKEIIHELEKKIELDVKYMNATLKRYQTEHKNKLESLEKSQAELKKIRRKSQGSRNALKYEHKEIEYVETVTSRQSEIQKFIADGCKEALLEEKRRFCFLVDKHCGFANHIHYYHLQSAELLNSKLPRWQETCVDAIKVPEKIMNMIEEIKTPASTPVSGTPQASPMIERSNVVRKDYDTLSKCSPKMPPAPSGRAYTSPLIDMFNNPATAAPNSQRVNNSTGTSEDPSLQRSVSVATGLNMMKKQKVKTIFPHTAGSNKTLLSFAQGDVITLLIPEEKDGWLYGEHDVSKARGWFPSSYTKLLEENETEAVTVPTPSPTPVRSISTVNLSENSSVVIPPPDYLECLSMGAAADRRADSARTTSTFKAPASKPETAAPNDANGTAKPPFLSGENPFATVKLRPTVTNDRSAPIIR
UniProt Q9UBB4: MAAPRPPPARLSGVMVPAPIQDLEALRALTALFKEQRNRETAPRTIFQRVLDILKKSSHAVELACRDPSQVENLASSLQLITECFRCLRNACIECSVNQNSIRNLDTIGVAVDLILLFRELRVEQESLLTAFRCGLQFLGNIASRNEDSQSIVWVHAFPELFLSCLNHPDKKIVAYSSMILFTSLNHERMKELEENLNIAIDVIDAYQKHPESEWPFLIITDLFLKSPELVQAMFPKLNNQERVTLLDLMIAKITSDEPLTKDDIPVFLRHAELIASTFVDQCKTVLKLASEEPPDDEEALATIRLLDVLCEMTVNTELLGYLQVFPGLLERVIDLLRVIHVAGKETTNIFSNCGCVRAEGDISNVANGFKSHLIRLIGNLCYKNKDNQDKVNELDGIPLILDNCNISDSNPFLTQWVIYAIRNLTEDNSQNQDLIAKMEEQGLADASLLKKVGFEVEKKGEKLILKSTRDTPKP
UniProt Q9NSY1, whole entry, looked up: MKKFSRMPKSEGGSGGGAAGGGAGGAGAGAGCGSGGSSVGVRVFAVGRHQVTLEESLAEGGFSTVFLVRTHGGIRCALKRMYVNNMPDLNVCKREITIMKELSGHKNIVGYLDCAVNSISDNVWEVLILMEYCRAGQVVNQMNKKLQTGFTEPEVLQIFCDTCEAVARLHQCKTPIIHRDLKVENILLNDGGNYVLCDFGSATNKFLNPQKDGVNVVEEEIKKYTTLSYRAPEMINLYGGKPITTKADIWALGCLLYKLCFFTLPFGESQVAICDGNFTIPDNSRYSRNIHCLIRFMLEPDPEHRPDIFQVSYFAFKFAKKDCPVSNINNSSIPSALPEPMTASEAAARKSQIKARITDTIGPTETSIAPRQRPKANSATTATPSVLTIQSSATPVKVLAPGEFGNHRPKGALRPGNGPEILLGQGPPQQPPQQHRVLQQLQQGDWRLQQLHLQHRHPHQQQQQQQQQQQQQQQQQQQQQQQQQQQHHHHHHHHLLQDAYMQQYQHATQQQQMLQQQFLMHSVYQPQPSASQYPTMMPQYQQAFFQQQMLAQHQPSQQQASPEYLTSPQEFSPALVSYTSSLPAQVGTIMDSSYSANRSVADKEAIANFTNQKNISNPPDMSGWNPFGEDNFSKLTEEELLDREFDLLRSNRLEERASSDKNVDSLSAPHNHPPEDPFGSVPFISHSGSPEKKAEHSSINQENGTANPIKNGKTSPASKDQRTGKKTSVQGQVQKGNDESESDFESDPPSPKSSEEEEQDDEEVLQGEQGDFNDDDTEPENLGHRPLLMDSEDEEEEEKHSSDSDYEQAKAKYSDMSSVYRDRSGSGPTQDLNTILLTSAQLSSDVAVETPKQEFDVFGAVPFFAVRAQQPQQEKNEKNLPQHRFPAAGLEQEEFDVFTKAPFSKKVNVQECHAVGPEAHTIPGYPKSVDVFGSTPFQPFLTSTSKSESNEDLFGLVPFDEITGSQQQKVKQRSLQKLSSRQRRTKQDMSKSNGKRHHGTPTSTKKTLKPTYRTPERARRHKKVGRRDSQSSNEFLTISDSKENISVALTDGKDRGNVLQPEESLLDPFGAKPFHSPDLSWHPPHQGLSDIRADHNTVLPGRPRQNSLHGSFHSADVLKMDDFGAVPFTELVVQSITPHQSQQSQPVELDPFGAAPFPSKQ
UniProt Q9NWV8, whole entry, looked up: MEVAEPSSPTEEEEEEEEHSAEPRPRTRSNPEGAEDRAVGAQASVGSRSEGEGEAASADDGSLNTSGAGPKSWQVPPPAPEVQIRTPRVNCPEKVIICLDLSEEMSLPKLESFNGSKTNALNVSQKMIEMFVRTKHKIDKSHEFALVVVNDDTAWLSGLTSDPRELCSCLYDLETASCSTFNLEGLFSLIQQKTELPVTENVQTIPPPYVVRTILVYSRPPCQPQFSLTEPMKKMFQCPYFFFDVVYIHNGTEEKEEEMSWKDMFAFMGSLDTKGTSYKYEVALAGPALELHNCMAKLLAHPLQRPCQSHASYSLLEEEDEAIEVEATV
UniProt O95816: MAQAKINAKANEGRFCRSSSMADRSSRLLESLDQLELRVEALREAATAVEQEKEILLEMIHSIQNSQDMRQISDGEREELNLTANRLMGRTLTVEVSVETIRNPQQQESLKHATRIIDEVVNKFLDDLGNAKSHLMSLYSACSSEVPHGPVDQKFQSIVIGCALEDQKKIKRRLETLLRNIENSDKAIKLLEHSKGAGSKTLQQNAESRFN
UniProt Q8NFC6: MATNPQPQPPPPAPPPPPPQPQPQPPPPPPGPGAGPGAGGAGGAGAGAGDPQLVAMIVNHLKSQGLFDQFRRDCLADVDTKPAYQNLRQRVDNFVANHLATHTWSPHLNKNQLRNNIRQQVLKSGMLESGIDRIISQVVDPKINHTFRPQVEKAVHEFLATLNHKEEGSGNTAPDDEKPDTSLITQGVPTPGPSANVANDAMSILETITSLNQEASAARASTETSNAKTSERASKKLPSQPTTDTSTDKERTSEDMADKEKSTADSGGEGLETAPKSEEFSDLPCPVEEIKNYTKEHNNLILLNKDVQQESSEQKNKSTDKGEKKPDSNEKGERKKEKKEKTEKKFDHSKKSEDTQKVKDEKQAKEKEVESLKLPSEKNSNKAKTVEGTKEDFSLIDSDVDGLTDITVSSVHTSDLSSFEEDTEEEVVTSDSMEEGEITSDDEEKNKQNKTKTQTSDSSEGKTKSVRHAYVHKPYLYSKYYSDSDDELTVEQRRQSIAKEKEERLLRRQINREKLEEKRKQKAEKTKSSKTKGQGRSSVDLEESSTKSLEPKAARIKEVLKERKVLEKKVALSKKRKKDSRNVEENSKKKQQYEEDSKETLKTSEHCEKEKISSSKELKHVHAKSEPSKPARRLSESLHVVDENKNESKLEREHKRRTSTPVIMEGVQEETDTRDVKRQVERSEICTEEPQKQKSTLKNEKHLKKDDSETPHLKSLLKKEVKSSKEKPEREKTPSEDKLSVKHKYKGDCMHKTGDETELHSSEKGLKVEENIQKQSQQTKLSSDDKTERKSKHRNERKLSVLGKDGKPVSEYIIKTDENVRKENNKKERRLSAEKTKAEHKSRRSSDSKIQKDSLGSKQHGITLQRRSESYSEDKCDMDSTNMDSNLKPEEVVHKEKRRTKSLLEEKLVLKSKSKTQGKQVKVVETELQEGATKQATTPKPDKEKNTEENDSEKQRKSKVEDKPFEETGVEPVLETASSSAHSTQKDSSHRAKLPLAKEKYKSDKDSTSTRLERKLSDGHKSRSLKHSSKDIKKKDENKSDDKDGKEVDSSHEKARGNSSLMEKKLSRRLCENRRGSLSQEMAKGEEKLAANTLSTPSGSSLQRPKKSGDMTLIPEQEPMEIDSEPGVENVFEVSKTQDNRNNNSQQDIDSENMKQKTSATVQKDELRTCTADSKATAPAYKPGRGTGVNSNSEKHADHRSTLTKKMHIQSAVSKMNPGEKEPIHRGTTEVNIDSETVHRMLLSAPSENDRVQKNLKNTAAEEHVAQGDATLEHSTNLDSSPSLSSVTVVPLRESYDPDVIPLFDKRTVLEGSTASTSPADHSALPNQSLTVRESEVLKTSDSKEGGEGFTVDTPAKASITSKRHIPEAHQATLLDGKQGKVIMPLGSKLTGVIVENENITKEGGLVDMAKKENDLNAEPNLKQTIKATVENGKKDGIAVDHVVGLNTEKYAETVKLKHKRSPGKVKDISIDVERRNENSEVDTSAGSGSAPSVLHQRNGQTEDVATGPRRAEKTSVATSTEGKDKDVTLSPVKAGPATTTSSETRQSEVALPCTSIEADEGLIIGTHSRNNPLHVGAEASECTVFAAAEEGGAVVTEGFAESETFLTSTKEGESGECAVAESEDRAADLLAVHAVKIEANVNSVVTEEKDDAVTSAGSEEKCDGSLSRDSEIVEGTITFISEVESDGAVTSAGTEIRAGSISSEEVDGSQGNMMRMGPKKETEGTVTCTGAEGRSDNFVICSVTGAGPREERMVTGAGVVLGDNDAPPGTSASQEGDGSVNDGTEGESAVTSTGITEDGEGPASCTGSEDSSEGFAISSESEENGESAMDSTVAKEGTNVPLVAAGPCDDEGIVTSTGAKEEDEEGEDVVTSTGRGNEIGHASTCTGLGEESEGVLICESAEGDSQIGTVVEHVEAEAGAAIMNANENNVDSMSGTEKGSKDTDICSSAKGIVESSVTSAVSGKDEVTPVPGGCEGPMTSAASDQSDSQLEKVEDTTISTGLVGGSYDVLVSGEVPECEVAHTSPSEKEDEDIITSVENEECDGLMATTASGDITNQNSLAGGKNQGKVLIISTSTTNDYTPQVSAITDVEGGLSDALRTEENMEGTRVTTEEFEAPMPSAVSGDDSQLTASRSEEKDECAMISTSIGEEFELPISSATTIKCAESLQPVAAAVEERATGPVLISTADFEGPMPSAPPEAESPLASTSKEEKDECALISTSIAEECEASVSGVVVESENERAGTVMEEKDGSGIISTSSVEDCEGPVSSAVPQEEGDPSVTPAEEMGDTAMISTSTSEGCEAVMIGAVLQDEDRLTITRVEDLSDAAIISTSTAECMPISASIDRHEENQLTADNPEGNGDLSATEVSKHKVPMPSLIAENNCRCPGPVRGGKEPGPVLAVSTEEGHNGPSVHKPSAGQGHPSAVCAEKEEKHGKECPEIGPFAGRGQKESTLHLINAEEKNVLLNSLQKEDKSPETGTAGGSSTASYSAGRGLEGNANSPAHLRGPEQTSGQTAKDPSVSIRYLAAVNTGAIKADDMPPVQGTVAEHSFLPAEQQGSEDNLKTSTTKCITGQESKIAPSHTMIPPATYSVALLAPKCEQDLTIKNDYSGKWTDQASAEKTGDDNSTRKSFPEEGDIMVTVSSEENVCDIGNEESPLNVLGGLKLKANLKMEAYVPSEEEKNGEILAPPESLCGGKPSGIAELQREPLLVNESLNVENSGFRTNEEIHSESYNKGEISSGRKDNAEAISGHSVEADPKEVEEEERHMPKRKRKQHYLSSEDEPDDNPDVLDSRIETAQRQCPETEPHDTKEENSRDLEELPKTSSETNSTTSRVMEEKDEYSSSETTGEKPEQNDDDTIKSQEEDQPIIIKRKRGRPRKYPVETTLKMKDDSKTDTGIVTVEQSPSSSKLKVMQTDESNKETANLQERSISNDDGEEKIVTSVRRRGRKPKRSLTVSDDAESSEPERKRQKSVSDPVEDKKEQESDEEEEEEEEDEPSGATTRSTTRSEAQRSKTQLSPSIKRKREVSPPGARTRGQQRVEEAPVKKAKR

[1] = compound: Cc1cccc(CC(=O)N2CCc3c2ccc(-c2cn(C)c4ncnc(N)c24)c3F)n1
Outline: as §1

nilotinib = compound: Cc1cn(-c2cc(NC(=O)c3ccc(C)c(Nc4nccc(-c5cccnc5)n4)c3)cc(C(F)(F)F)c2)cn1 [nilotinib]
Outline: as §1

[2] = compound: Cc1nc(Nc2n[nH]c3c2CN(C(=O)N[C@H](CN(C)C)c2ccccc2)C3(C)C)c2sccc2n1
Outline: as §1

dasatinib = compound: Cc1nc(Nc2ncc(C(=O)Nc3c(C)cccc3Cl)s2)cc(N2CCN(CCO)CC2)n1 [dasatinib]
Outline: as §1

[3] = compound: Cc1ncc(-c2ccnc(Nc3ccc(S(C)(=O)=O)cc3)n2)n1C(C)C
Outline: as §1

[4] = compound: Cn1cc(-c2ccc3c(c2)CCN3C(=O)Cc2cccc(C(F)(F)F)c2)c2c(N)ncnc21
Outline: as §1

[5] = compound: Cn1cc(-c2ccc3nnc(C(F)(F)c4ccc5ncccc5c4)n3n2)cn1
Outline: as §1

tipifarnib = compound: Cn1cncc1[C@@](N)(c1ccc(Cl)cc1)c1ccc2c(c1)c(-c1cccc(Cl)c1)cc(=O)n2C [tipifarnib]
Outline: as §1

mubritinib = compound: FC(F)(F)c1ccc(/C=C/c2nc(COc3ccc(CCCCn4ccnn4)cc3)co2)cc1 [mubritinib]
Outline: as §1

[6] = compound: NC(=O)Nc1cc(-c2cccc(F)c2)sc1C(=O)N[C@H]1CCCNC1
Outline: as §1

[7] = compound: NC(=O)c1cnc(N[C@@H]2CCCC[C@@H]2N)nc1Nc1cccc(-n2nccn2)c1
Outline: as §1

[8] = compound: NC1(c2ccc(-c3nc4ccn5c(=O)[nH]nc5c4cc3-c3ccccc3)cc2)CCC1
Outline: as §1

[9] = compound: NCC(=O)Nc1ccc(-n2nc(C(F)(F)F)cc2-c2ccc3c(ccc4ccccc43)c2)cc1
Outline: as §1

entinostat = compound: Nc1ccccc1NC(=O)c1ccc(CNC(=O)OCc2cccnc2)cc1 [entinostat]
Outline: as §1

vorinostat = compound: O=C(CCCCCCC(=O)Nc1ccccc1)NO [vorinostat]
Outline: as §1

citarinostat = compound: O=C(CCCCCCNC(=O)c1cnc(N(c2ccccc2)c2ccccc2Cl)nc1)NO [citarinostat]
Outline: as §1

silmitasertib = compound: O=C(O)c1ccc2c(c1)nc(Nc1cccc(Cl)c1)c1ccncc12 [silmitasertib]
Outline: as §1

[10] = compound: O=C1NC(=O)C(c2cnc3ccccn23)=C1c1cn2c3c(cc(F)cc13)CN(C(=O)N1CCCCC1)CC2
Outline: as §1

[11] = compound: c1cc(OCCN2CCCCC2)cc(-c2n[nH]c3ccc(-c4nnc[nH]4)cc23)c1
Outline: as §1

Target	log2 fold change (bafetinib)	log2 fold change [1]	log2 fold change (nilotinib)	log2 fold change [2]	log2 fold change (dasatinib)	log2 fold change [3]	log2 fold change [4]	log2 fold change [5]	log2 fold change (tipifarnib)	log2 fold change (mubritinib)	log2 fold change [6]	log2 fold change [7]	log2 fold change [8]	log2 fold change [9]	log2 fold change (entinostat)	log2 fold change (vorinostat)	log2 fold change (citarinostat)	log2 fold change (silmitasertib)	log2 fold change [10]	log2 fold change [11]
BCL2L13 (UniProt Q9BXK5)	inactive: -0.067	inactive: 0.002	inactive: -0.007	inactive: -0.025	inactive: -0.007	inactive: 0.006	inactive: 0.01	inactive: 0.027	inactive: 0.041	inactive: 0.046	inactive: -0.016	inactive: -0.108	inactive: -0.098	inactive: -0.031	inactive: 0.019	inactive: 0.042	inactive: 0.049	inactive: 0.023	inactive: -0.048	inactive: -0.031
BIRC6 (UniProt Q9NR09)	inactive: 0.057	inactive: 0.02	inactive: -0.03	inactive: 0.015	inactive: -0.073	inactive: -0.011	inactive: 0.008	inactive: -0.011	inactive: -0.035	inactive: 0.037	inactive: 0.035	inactive: -0.007	inactive: -0.1	inactive: 0.003	inactive: 0.014	inactive: 0	inactive: -0.031	inactive: 0.04	inactive: 0.016	inactive: 0.055
BCLAF1 (UniProt Q9NYF8)	inactive: -0.028	inactive: 0.059	inactive: 0.02	active: -0.609	inactive: 0.081	inactive: -0.14	inactive: -0.018	inactive: -0.065	inactive: -0.005	inactive: 0.031	inactive: 0.01	inactive: 0.006	inactive: 0.003	inactive: 0.064	inactive: 0.047	inactive: 0.109	inactive: 0.07	inactive: -0.361	inactive: 0.128	inactive: -0.31
BOLA3 (UniProt Q53S33)	inactive: -0.064	inactive: -0.033	inactive: 0.013	inactive: 0.013	inactive: 0.076	inactive: -0.004	inactive: 0.036	inactive: 0.034	inactive: 0.007	inactive: 0.042	inactive: -0.034	inactive: -0.009	inactive: -0.031	inactive: 0	inactive: -0.023	inactive: -0.024	inactive: 0.011	inactive: -0.008	inactive: 0.012	inactive: 0.003
BABAM2 (UniProt Q9NXR7)	inactive: 0.008	inactive: -0.009	inactive: 0.022	inactive: -0.014	inactive: 0.052	inactive: 0.039	inactive: 0.015	inactive: -0.01	inactive: 0.071	inactive: 0.021	inactive: -0.01	inactive: 0.022	inactive: -0.014	inactive: 0.117	inactive: -0.066	inactive: -0.052	inactive: -0.001	inactive: 0.079	inactive: -0.022	inactive: -0.021
AUP1 (UniProt Q9Y679)	inactive: -0.023	inactive: 0.11	inactive: -0.102	inactive: -0.055	inactive: -0.097	inactive: 0.018	inactive: 0.01	inactive: -0.03	inactive: -0.106	inactive: 0.033	inactive: -0.013	inactive: -0.082	active: -0.236	inactive: -0.107	inactive: 0.061	inactive: 0.135	inactive: 0.067	inactive: 0.019	inactive: 0.064	inactive: -0.051
BORCS5 (UniProt Q969J3)	inactive: -0.065	inactive: 0.051	inactive: -0.033	inactive: -0.018	inactive: 0.035	inactive: 0.029	inactive: 0.066	inactive: 0.073	inactive: 0.047	inactive: 0.04	inactive: 0.008	inactive: 0.017	inactive: -0.081	inactive: -0.037	inactive: 0.039	inactive: -0.152	inactive: 0.069	inactive: -0.044	inactive: -0.198	inactive: 0.032
BAIAP2L1 (UniProt Q9UHR4)	inactive: -0.045	inactive: -0.014	inactive: -0.007	inactive: -0.065	inactive: 0.018	inactive: -0.014	inactive: 0.042	inactive: 0.023	inactive: 0.014	inactive: 0.031	inactive: -0.062	inactive: -0.006	inactive: -0.021	inactive: 0.012	inactive: -0.014	inactive: 0.024	inactive: 0.021	inactive: 0.002	inactive: -0.018	inactive: -0.02
BRAP (UniProt Q7Z569)	inactive: 0.026	inactive: 0.017	inactive: -0.087	inactive: -0.186	inactive: -0.097	inactive: -0.116	inactive: -0.067	inactive: -0.066	inactive: -0.04	inactive: 0.056	inactive: 0.056	inactive: -0.063	inactive: -0.113	inactive: -0.015	inactive: 0.003	inactive: 0.069	inactive: 0.037	inactive: 0.073	inactive: 0.124	inactive: 0.064
ATXN10 (UniProt Q9UBB4)	inactive: -0.043	inactive: 0.067	inactive: -0.059	inactive: 0.001	inactive: 0.02	inactive: -0.035	inactive: 0.025	inactive: 0.02	inactive: -0.005	inactive: 0.07	inactive: -0.051	inactive: -0.023	inactive: -0.097	inactive: 0	inactive: 0.002	inactive: 0.044	inactive: 0.048	inactive: -0.035	inactive: -0.006	inactive: -0.042
BMP2K (UniProt Q9NSY1)	inactive: 0.037	inactive: -0.107	inactive: -0.067	active: 0.534	inactive: 0	inactive: 0.34	inactive: -0.016	inactive: -0.036	inactive: 0.016	inactive: -0.042	inactive: 0.297	inactive: 0.076	inactive: 0.035	inactive: -0.007	inactive: -0.037	inactive: -0.078	inactive: -0.053	inactive: 0.031	inactive: 0.291	inactive: 0.241
BABAM1 (UniProt Q9NWV8)	inactive: 0.015	inactive: -0.009	inactive: -0.002	inactive: 0.016	inactive: 0.04	inactive: 0	inactive: -0.014	inactive: -0.029	inactive: 0.01	inactive: -0.026	inactive: 0.032	inactive: 0.032	inactive: 0.021	inactive: 0.042	inactive: -0.035	inactive: -0.015	inactive: -0.019	inactive: 0.047	inactive: 0.004	inactive: -0.022
BAG2 (UniProt O95816)	inactive: 0.071	inactive: -0.035	inactive: 0.051	inactive: -0.014	inactive: 0.066	inactive: -0.014	inactive: -0.137	inactive: -0.143	inactive: 0	inactive: -0.055	inactive: 0.137	inactive: 0.057	inactive: 0.134	inactive: 0.067	inactive: 0.009	inactive: -0.017	inactive: -0.044	inactive: 0.112	inactive: 0.253	inactive: -0.147
BOD1L1 (UniProt Q8NFC6)	inactive: 0.06	inactive: -0.009	inactive: 0.043	inactive: -0.076	inactive: 0.063	inactive: -0.009	inactive: -0.052	inactive: -0.016	inactive: 0.041	inactive: -0.016	inactive: 0.023	inactive: -0.019	inactive: 0.065	inactive: 0.04	inactive: -0.054	inactive: 0.011	inactive: -0.019	inactive: -0.009	inactive: 0.037	inactive: -0.121
BCCIP isoform 2 (UniProt Q9P287)	inactive: 0.014	inactive: 0.021	inactive: -0.046	inactive: -0.029	inactive: -0.071	inactive: 0.017	inactive: -0.064	inactive: -0.007	inactive: -0.015	inactive: -0.023	inactive: 0	inactive: -0.001	inactive: -0.096	inactive: -0.011	inactive: 0.027	inactive: 0.033	inactive: 0.021	inactive: 0.096	inactive: -0.029	inactive: -0.031
ATXN2 (UniProt Q99700)	inactive: -0.071	inactive: -0.018	inactive: 0.037	inactive: -0.01	inactive: 0	inactive: -0.05	inactive: -0.037	inactive: -0.007	inactive: -0.019	inactive: 0.028	inactive: -0.027	inactive: 0.082	inactive: -0.031	inactive: -0.03	inactive: -0.036	inactive: 0.036	inactive: 0.005	inactive: 0	inactive: -0.036	inactive: -0.097

Given bar-delimited: entries from further up.
Target | log2 fold change (bafetinib) | log2 fold change [1] | log2 fold change (nilotinib) | log2 fold change [2] | log2 fold change (dasatinib) | log2 fold change [3] | log2 fold change [4] | log2 fold change [5] | log2 fold change (tipifarnib) | log2 fold change (mubritinib) | log2 fold change [6] | log2 fold change [7] | log2 fold change [8] | log2 fold change [9] | log2 fold change (entinostat) | log2 fold change (vorinostat) | log2 fold change (citarinostat) | log2 fold change (silmitasertib) | log2 fold change [10] | log2 fold change [11]
BORCS5 (UniProt Q969J3) | inactive: -0.065 | inactive: 0.051 | inactive: -0.033 | inactive: -0.018 | inactive: 0.035 | inactive: 0.029 | inactive: 0.066 | inactive: 0.073 | inactive: 0.047 | inactive: 0.04 | inactive: 0.008 | inactive: 0.017 | inactive: -0.081 | inactive: -0.037 | inactive: 0.039 | inactive: -0.152 | inactive: 0.069 | inactive: -0.044 | inactive: -0.198 | inactive: 0.032
BAIAP2L1 (UniProt Q9UHR4) | inactive: -0.045 | inactive: -0.014 | inactive: -0.007 | inactive: -0.065 | inactive: 0.018 | inactive: -0.014 | inactive: 0.042 | inactive: 0.023 | inactive: 0.014 | inactive: 0.031 | inactive: -0.062 | inactive: -0.006 | inactive: -0.021 | inactive: 0.012 | inactive: -0.014 | inactive: 0.024 | inactive: 0.021 | inactive: 0.002 | inactive: -0.018 | inactive: -0.02
